Values joined by “and” are separate entries in the source; they are usually repeats but may differ in a detail not shown here. Equal entries are not always repeated. Where two headings read alike, the source gives them in different places. This continues a long series; more values of the same kind are listed elsewhere.
Test system: MDA-MB-231 human breast cancer xenograft
Settings: listed as anti-STAT3 bacterial VHH13

**Q.** How did the “Individual Tumor Measurements” value (Group 2, 500 μg/kg bw IP QDx14, single animals, Day 1) turn out when “Anti-STAT3 VHH13: anti-STAT3 single domain antibody, SEQ ID NO:3; bacterially produced form referred to as SBT-100” was run?
**A.** 163.73 mm^3 and 75.54 mm^3 and 70.04 mm^3 and 101.62 mm^3 and 67.83 mm^3 and 131.93 mm^3 and 74.28 mm^3

**Q.** What about the “Individual Tumor Measurements” value (Group 2, single animals, Day 6) of the same substance?
**A.** 178.23 mm^3 and 83.94 mm^3 and 89.24 mm^3 and 65.09 mm^3 and 62.21 mm^3 and 75.28 mm^3 and 109.06 mm^3

**Q.** And the “Individual Tumor Measurements” value (Group 2, single animals, Day 9)?
**A.** 183.79 mm^3 and 103.68 mm^3 and 102.60 mm^3 and 82.02 mm^3 and 59.00 mm^3 and 76.21 mm^3 and 111.92 mm^3

**Q.** What about the “Individual Tumor Measurements” value (Group 2, single animals, Day 12) of the same substance?
**A.** 165.52 mm^3 and 119.88 mm^3 and 75.25 mm^3 and 68.01 mm^3 and 77.04 mm^3 and 53.55 mm^3 and 89.94 mm^3

**Q.** And the “Individual Tumor Measurements” value (Group 2, single animals, Day 16)?
**A.** 166.77 mm^3 and 214.28 mm^3 and 104.26 mm^3 and 57.65 mm^3 and 61.41 mm^3 and 65.49 mm^3 and 73.66 mm^3 and 58.56 mm^3

**Q.** And the “Individual Tumor Measurements” value (Group 2, single animals, Day 20)?
**A.** 285.88 mm^3 and 129.51 mm^3 and 99.48 mm^3 and 95.23 mm^3 and 61.83 mm^3 and 82.73 mm^3 and 51.61 mm^3 and 100.07 mm^3
